Data on 1 molecule can be found in paper PMC9799976.

The experiment concerns the target neuron-specific dynein intermediate chain isoform IC-1B. Nature of the experiment: co-IP; HEK293 cells transfected with IC-1B and HA-tagged DCX with or without JIP3; antibody for HA precipitates HA-DCX; Western blot for DIC and HA. A general note: Immunoblotting shows a protein as a band on a membrane.

These are yes or no findings as the source states them, for the method shown. Binding seen in cells or lysates may run through a third protein. Binding can be weak; no strength is given.

B1: JIP3 expressed in HEK293 cells (protein, UniProt Q9ESN9 1-1337)
chain: MMEIQMDEGGGVVVYQDDYCSGSVMSERVSGLAGSIYREFERLIHCYDEEVVKELMPLVVNVLENLDSVLSENQEHEVELELLREDNEQLLTQYEREKALRKQAEEKFIEFEDALEQEKKELQIQVEHYEFQTRQLELKAKNYADQISRLEERESEMKKEYNALHQRHTEMIQTYVEHIERSKMQQVGGSGQTESSLPGRSRKERPTSLNVFPLADGMVRAQMGGKLVPAGDHWHLSDLGQLQSSSSYQCPNDEMSESGQSSAAATPSTTGTKSNTPTSSVPSAAVTPLNESLQPLGDYVSVTKNNKQAREKRNSRNMEVQVTQEMRNVSIGMGSSDEWSDVQDIIDSTPELDVCPETRLERTGSSPTQGIVNKAFGINTDSLYHELSTAGSEVIGDVDEGADLLGEFSVRDDFFGMGKEVGNLLLENSQLLETKNALNVVKNDLIAKVDQLSGEQEVLKGELEAAKQAKVKLENRIKELEEELKRVKSEAVTARREPREEVEDVSSYLCTELDKIPMAQRRRFTRVEMARVLMERNQYKERLMELQEAVRWTEMIRASREHPSVQEKKKSTIWQFFSRLFSSSSSPPPAKRSYPSVNIHYKSPTAAGFSQRRSHALCQISAGSRPLEFFPDDDCTSSARREQKREQYRQVREHVRNDDGRLQACGWSLPAKYKQLSPNGGQEDTRMKNVPVPVYCRPLVEKDPSTKLWCAAGVNLSGWKPHEEDSSNGPKPVPGRDPLTCDREGEGEPKSTHPSPEKKKAKETPEADATSSRVWILTSTLTTSKVVIIDANQPGTIVDQFTVCNAHVLCISSIPAASDSDYPPGEMFLDSDVNPEDSGADGVLAGITLVGCATRCNVPRSNCSSRGDTPVLDKGQGDVATTANGKVNPSQSTEEATEATEVPDPGPSESEATTVRPGPLTEHVFTDPAPTPSSSTQPASENGSESNGTIVQPQVEPSGELSTTTSSAAPTMWLGAQNGWLYVHSAVANWKKCLHSIKLKDSVLSLVHVKGRVLVALADGTLAIFHRGEDGQWDLSNYHLMDLGHPHHSIRCMAVVNDRVWCGYKNKVHVIQPKTMQIEKSFDAHPRRESQVRQLAWIGDGVWVSIRLDSTLRLYHAHTHQHLQDVDIEPYVSKMLGTGKLGFSFVRITALLIAGNRLWVGTGNGVVISIPLTETVVLHRGQLLGLRANKTSPTSGEGTRPGGIIHVYGDDSSDKAASSFIPYCSMAQAQLCFHGHRDAVKFFVSVPGNVLATLNGSVLDSPSEGPGPAAPAADAEGQKLKNALVLSGGEGYIDFRIGDGEDDETEECAGDVNQTKPSLSKAERSHIIVWQVSYTPE
Take B1: the binding result was “binds”.
